Data as given in PubChem BioAssay AID662 (National Center for Advancing Translational Sciences (NCATS), 2007).
The other results are listed elsewhere or left out. These are further read-outs of the screen, such as a control signal, another cell line or another target. No call is given for them. The list favours compounds with an active or inconclusive main result. The note in brackets gives the kind of curve behind each potency; many fits are weak.

Assay: Cell signaling CRE-BLA (Fsk stim)
Settings: CHO CRE-bla reporter (cAMP response element driving beta-lactamase), forskolin EC10, beta-lactamase ratio; measured here: 460 nm blue channel
Outline: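 CRE-bla CHO cells stimulated with EC10 NKH 477 (water-soluble forskolin) and compound titrations, 3 h at 37C; beta-lactamase read with CCF4 after 2 h at room temperature. Activity from 460/530 nm emission ratio, AC50 values for positive or negative modulation.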

Structure (SMILES) | AC50
CCOC(=O)c1sc(C)nc1C1CCN(C(=O)OCC)CC1 | 10 µM [falling, partial curve]
O=C(NCC(c1cccnc1)N1CCN(c2ccc(F)cc2)CC1)c1ccccc1 (stereo not drawn) | 2.51 µM [rising, partial curve]
CC1CN(S(=O)(=O)c2cccc(-c3cn4ccccc4n3)c2)CC(C)O1 (stereo not drawn) | 15.8 µM [rising, single point]
NC(=O)c1c(NC(=O)COC(=O)CSc2nnc(-c3ccc(Cl)cc3)o2)sc2c1CCC2 | 0.00398 µM [falling, full curve, poor fit]
O=C(c1ccc(N2CCCC2=O)cc1)N1CCCCCC1 | 0.0631 µM [rising, full curve, poor fit]
Cc1ccc2c(C(=O)CN3CCN(C4CCCCC4)CC3)c(C)[nH]c2c1 | 6.31 µM [falling, partial curve, poor fit]
CC(=O)Nc1cc(-c2nn(CC(=O)N3CCCCC3)c(=O)c3ccccc23)ccc1N1CCOCC1 | 15.8 µM [rising, partial curve]
Cc1cc(Nc2cccc(F)c2)n2nc(C)nc2n1 | 12.6 µM [rising, partial curve]
Cc1cccc(N2CCN(C(=O)C3CCCN(S(=O)(=O)c4cnc[nH]4)C3)CC2C)c1 (stereo not drawn) | 0.631 µM [falling, full curve, poor fit]
CC(C)n1c2ccccc2c2nnc(SCC(=O)OCN3C(=O)c4ccccc4C3=O)nc21 | 0.501 µM [rising, full curve]
NC(=O)c1cc(-c2ccccc2)nc(N2CCCCCC2)n1 | 20 µM [rising, partial curve]
COc1ccc(OC)c(-c2nnc(NC(=O)C(C)Sc3nncn3C)s2)c1 (stereo not drawn) | 10 µM [rising, partial curve]
CCC(Sc1nnc(-c2ccc(C)c(Cl)c2)n1CC)C(=O)Nc1nccs1 (stereo not drawn) | 0.0398 µM [rising, full curve, poor fit]
Cc1cnc(C(=O)OCC(=O)Nc2oc(-c3ccccc3)c(-c3ccccc3)c2C#N)cn1 | 12.6 µM [rising, partial curve]
COC(=O)N1CCC2(CC1)CN(c1ccccc1)C2 | 3.98 µM [rising, partial curve]
COC(=O)C1=C(CSc2nc3ccccc3o2)NC(=O)NC1c1cc(C)ccc1C (stereo not drawn) | 1.58 µM [rising, partial curve]
CC(=O)C(C(C)=O)c1c(Cl)c(O)c(O)c2c(C(=O)c3ccccc3)coc12 | 25.1 µM [falling, single point]
CC(=O)Cc1nsc(NC(=O)c2ccc(-c3cc(C(F)(F)F)ccc3Cl)o2)n1 | 5.01 µM [rising, partial curve]
COCCn1c(=O)c(-c2ccc(F)c(F)c2)nc2cncnc21 | 20 µM [rising, single point]
Cn1nc(-c2ccc(Cl)cc2)c2cc(C(=O)NCCN3CCOCC3)sc21 | 6.31 µM [rising, partial curve]
CC(=O)c1ccc(N2CCCC2)c(F)c1 | 12.6 µM [rising, single point]
O=S(=O)(NCCCCCCc1ccccc1)c1cccc2c(Cl)cccc12 | 31.6 µM [falling, single point]
O=C(NCCN1CCOCC1)c1cc(-c2ccc(Cl)cc2)on1 | 0.316 µM [falling, partial curve, poor fit]

Pulled by structure from the entries so far:
Structure (SMILES) | AC50
COc1ccc(OC)c(-c2nnc(NC(=O)C(C)Sc3nncn3C)s2)c1 (stereo not drawn) | 10 µM [rising, partial curve]
COC(=O)C1=C(CSc2nc3ccccc3o2)NC(=O)NC1c1cc(C)ccc1C (stereo not drawn) | 1.58 µM [rising, partial curve]

Continuation.

Structure (SMILES) | AC50
CC1CC(C)CN(CCCNC(=O)Cc2c(C(=O)O)[nH]c3ccccc23)C1 (stereo not drawn) | 20 µM [falling, partial curve]
N#Cc1nn(-c2ccccc2)nc1N1CCCCC1 | 0.0631 µM [falling, full curve]
COC(=O)CSC1=NS(=O)(=O)c2ccccc21 | 10 µM [falling, partial curve]
Cc1ccc(C)c2[nH]c(=O)c(CCNC(=O)c3cc4ccccc4o3)cc12 | 20 µM [falling, single point]
Cc1nc2nc[nH]n2c(=O)c1NC(=O)CCc1ccccc1 | 0.0631 µM [falling, partial curve]
O=C(CN1CCc2ccccc21)Nc1ccc2c(c1)OCO2 | 10 µM [falling, single point]
CN(C)c1oc(-c2ccccc2)nc1C#N | 0.0631 µM [falling, full curve, poor fit]
Cc1ccc2c(c1)c1c(n2CC(O)Cn2c(C)nc3ccccc32)/C(=N\O)CCC1 (stereo not drawn) | 12.6 µM [falling, single point]
CCOc1ccccc1Nc1cc(C)nc2nc(C)nn12 | 12.6 µM [rising, partial curve]
CC(=O)Nc1ccc(-c2nc3c(C)cccc3[nH]2)cc1 | 31.6 µM [falling, single point]
O=C1Nc2cc(C(=O)N3CCOCC3)ccc2SC1N1CCOCC1 (stereo not drawn) | 25.1 µM [rising, single point]
CCCCCN=C(C)c1c(O)c2ccccc2oc1=O | 12.6 µM [rising, single point]
Cn1c(C(=O)N2CCc3ccccc32)cc2c(=O)n3ccccc3nc21 | 15.8 µM [rising, partial curve]
Cc1cc(NC(=O)COC(=O)C(Nc2ccc(C(F)(F)F)cc2Cl)C(C)C)no1 (stereo not drawn) | 15.8 µM [falling, partial curve, poor fit]
N#CCCn1c(=O)c(-c2ccccc2)nc2cnc(Oc3ccccc3)nc21 | 10 µM [rising, partial curve]
O=C(NCc1ccco1)c1sc(=S)n2c1[nH]c(=O)c1ccccc12 | 12.6 µM [falling, single point]
COc1ccc(-n2c(Cc3cccs3)nnc2SCC(=O)Nc2ccc3c(c2)OCCO3)cc1 | 3.98 µM [falling, full curve]
CCOC(=O)N1CCN(C(=O)c2cnn3c(C(F)F)cc(-c4ccc(C)cc4)nc23)CC1 | 12.6 µM [rising, partial curve]
Cn1c(=O)c(-c2ccc(Cl)cc2)nc2cnc(N3CCNCC3)nc21 | 2 µM [rising, full curve]
CSc1nncc(-c2ccc(F)cc2)n1 | 15.8 µM [rising, partial curve]
O=C(CSc1nnc(-c2cccs2)n1-c1ccccc1)NCc1ccco1 | 6.31 µM [falling, full curve, poor fit]
Cc1cc(-c2ccco2)n(-c2ccccc2)n1 | 3.16 µM [rising, full curve]
CCOC(=O)c1sc2nc3c(cc2c1N)COC(C)(C)C3 | 12.6 µM [rising, partial curve]

Among those listed so far, these have an aryl methoxy group.
Structure (SMILES) | AC50
COc1ccc(OC)c(-c2nnc(NC(=O)C(C)Sc3nncn3C)s2)c1 (stereo not drawn) | 10 µM [rising, partial curve]
COc1ccc(-n2c(Cc3cccs3)nnc2SCC(=O)Nc2ccc3c(c2)OCCO3)cc1 | 3.98 µM [falling, full curve]

(cont.)

Structure (SMILES) | AC50
C=CCNc1oc(-c2cccc3ccccc23)nc1C#N | 10 µM [rising, partial curve]
Cc1cc2c(cc1C)C(=O)NC(C)(C)C2 | 12.6 µM [falling, partial curve]
Cn1c(=O)[nH]c(=O)c2c1nc(CN1CCN(c3ccccc3F)CC1)n2CCCc1ccccc1 | 3.98 µM [rising, single point]
CCOC(=O)c1nnn(-c2nonc2-c2ccccc2)c1C | 3.16 µM [falling, single point]
c1ccc(-c2nc3nc4ccccc4nc3n2Cc2ccco2)cc1 | 10 µM [rising, single point]
COc1cc2c(cc1OC)CN(C(=O)CSc1nc3[nH]ncc3c(=O)n1-c1ccccc1)CC2 | 12.6 µM [rising, single point]
CCC(C)n1c(-c2cccs2)nc2nc3ccccc3nc21 (stereo not drawn) | 10 µM [rising, partial curve]
CCN(CC)c1nc(N)nc(NS(=O)(=O)c2ccc(Cl)cc2)n1 | 5.01 µM [falling, single point]
Cc1ccc2c(c1)C(O)(c1c(C)[nH]c3ccccc13)C(=O)N2 (stereo not drawn) | 31.6 µM [falling, single point]
CCC(Sc1nc(C)cc(=O)[nH]1)C(=O)Nc1ccc(Cl)cn1 (stereo not drawn) | 10 µM [rising, partial curve]
CC(=O)Nc1nc2n(n1)C(c1ccccc1)C=C(c1ccccc1)N2 (stereo not drawn) | 12.6 µM [rising, single point]
O=c1c(-c2cccs2)nc2cnc(Nc3ccccc3)nc2n1C[C@H]1CCCO1 | 0.794 µM [rising, full curve]
O=c1cc(-c2ccccc2)[nH]c2[nH]n(-c3ccccc3)c(=O)c12 | 12.6 µM [falling, partial curve]
O=Cc1ccc(Cl)c(Cl)c1 | 1 µM [falling, full curve, poor fit]
C[C@@H](C(=O)NCc1cccc2ccccc12)[C@H]1C[C@]1(C)[C@H](NC(=O)OCc1ccccc1)c1ccccc1 | 2 µM [falling, full curve, poor fit]
Clc1ccc(-c2nn3c(-c4ccncc4)nnc3s2)c(Cl)c1 | 3.16 µM [falling, full curve, poor fit]
NC(=O)c1sc2nc3c(c(-c4cccs4)c2c1N)CCCC3 | 0.01 µM [falling, full curve, poor fit]
c1ccc(Nc2ncnc3ccc(-c4ccoc4)cc23)cc1 | 5.01 µM [falling, partial curve]
CCOC(=O)c1ccc(-n2[nH]c(-c3ccccc3)cc2=O)cc1 | 5.01 µM [falling, partial curve]
Cc1ccc(C(C)C)c(OCC(=O)Nc2ccc(Cl)cn2)c1 | 10 µM [rising, partial curve]
N[C@@H](Cn1cc(F)c(=O)[nH]c1=O)C(=O)O | 0.02 µM [rising, full curve, poor fit]
OC1CCN(c2ncnc3nc[nH]c23)CC1 | 12.6 µM [rising, single point]
